Results taken from publication PMC10671326, “In Vivo and In Vitro Characterization of the RNA Binding Capacity of SETD1A (KMT2F)”.
No constants are given. Whether binding was seen depends on the method and setting. In cells and extracts the contact can be indirect. Some entries that bind do so weakly or less than the wild type. Values belong to the molecule of their own block, whether it stands above or below them.

Sequences of proteins named here, by UniProt entry; tags and fusion partners are left off.
UniProt O15047: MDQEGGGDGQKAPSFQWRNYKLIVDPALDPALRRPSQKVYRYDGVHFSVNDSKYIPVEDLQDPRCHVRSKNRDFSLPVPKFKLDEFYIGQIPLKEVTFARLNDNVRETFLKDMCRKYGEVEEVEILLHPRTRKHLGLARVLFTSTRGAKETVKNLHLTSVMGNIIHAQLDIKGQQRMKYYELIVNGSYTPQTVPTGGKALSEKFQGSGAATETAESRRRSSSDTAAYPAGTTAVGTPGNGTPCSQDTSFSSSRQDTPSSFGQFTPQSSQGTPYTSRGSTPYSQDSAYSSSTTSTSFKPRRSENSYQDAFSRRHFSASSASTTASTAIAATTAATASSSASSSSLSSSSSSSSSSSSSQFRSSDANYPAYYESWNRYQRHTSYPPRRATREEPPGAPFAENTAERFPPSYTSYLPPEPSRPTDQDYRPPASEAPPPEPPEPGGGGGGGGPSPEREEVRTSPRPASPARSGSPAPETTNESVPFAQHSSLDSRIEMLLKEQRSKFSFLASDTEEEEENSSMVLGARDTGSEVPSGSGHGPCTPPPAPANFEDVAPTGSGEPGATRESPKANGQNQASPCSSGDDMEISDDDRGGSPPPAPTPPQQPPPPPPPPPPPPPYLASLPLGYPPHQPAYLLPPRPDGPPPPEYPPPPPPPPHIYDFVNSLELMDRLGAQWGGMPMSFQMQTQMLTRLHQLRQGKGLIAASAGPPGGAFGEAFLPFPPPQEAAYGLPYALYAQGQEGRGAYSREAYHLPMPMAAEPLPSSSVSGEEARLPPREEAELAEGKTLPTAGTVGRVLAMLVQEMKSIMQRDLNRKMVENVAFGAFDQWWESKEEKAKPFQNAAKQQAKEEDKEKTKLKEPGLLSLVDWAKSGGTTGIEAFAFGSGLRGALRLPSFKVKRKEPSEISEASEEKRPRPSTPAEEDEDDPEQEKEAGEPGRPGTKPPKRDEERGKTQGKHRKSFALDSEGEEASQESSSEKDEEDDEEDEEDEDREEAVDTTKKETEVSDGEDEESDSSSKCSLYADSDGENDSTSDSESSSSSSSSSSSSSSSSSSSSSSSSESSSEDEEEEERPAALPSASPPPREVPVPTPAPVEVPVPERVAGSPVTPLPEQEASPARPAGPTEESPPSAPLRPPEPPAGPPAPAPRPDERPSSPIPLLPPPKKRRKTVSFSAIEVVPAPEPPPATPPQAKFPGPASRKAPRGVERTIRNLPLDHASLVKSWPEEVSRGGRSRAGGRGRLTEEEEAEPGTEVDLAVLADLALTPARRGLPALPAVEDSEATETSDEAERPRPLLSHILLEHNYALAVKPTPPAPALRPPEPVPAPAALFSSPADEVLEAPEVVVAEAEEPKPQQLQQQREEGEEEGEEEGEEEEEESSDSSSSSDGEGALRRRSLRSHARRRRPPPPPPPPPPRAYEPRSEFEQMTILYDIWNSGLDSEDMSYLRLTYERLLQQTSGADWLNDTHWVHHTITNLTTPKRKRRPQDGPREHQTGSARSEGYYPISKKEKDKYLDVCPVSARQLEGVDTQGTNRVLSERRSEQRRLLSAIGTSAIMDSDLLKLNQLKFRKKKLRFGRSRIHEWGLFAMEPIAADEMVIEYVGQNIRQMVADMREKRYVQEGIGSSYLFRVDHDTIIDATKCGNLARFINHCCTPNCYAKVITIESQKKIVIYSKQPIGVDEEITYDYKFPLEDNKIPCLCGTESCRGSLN

Biological target: T1, SC-35 (Serine/arginine-rich splicing factor 2) (human (endogenous in HEK293T)) (UniProt Q01130)
T1 sequence: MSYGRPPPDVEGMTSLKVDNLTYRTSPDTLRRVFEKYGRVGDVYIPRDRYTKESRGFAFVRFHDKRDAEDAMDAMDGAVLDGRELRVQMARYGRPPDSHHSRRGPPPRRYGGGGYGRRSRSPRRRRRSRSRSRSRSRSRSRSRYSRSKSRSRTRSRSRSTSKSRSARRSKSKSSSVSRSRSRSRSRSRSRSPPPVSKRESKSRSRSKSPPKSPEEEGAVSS
Experiment: co-IP; HEK293T cells crosslinked with 0.75% formaldehyde; sonicated nuclear lysate without RNase inhibitor; 6 µg anti-target IgG overnight at 4 °C, protein A/G magnetic beads; low-salt (150 mM NaCl) and high-salt (500 mM NaCl) washes; Western blot

binding: binds
Molecule: SETD1A (KMT2F), histone-lysine N-methyltransferase (from UniProt O15047 1-1707)

binding: binds
B1: PSPC1 (Paraspeckle component 1) (protein, UniProt Q8WXF1 1-523)
chain: MMLRGNLKQVRIEKNPARLRALESAVGESEPAAAAAMALALAGEPAPPAPAPPEDHPDEEMGFTIDIKSFLKPGEKTYTQRCRLFVGNLPTDITEEDFKRLFERYGEPSEVFINRDRGFGFIRLESRTLAEIAKAELDGTILKSRPLRIRFATHGAALTVKNLSPVVSNELLEQAFSQFGPVEKAVVVVDDRGRATGKGFVEFAAKPPARKALERCGDGAFLLTTTPRPVIVEPMEQFDDEDGLPEKLMQKTQQYHKEREQPPRFAQPGTFEFEYASRWKALDEMEKQQREQVDRNIREAKEKLEAEMEAARHEHQLMLMRQDLMRRQEELRRLEELRNQELQKRKQIQLRHEEEHRRREEEMIRHREQEELRRQQEGFKPNYMENREQEMRMGDMGPRGAINMGDAFSPAPAGNQGPPPMMGMNMNNRATIPGPPMGPGPAMGPEGAANMGTPMMPDNGAVHNDRFPQGPPSQMGSPMGSRTGSETPQAPMSGVGPVSGGPGGFGRGSQGGNFEGPNKRRRY
